PubChem BioAssay AID1224826 – NIAID | 2016
The deposit covers about 17,000 reagents; below is a random part of them. About 1,110 of all reagents (6.6%) count as active. 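Active means lowered or raised reporter signal; replicate intensities are raw and not normalised per plate.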 Entries without a mark were called inactive. No sequences are given here.

Assay: 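Genes that change LPS-induced Tnf promoter activity in mouse macrophages when knocked down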 (primary screen)
Cell system: RAW264.7 G9 macrophages from mouse bearing reporters for p65 (GFP) and the Tnf promoter (mCherry)
Reagents: siRNA pool against mouse genes, 100 nM
Time to read-out: 16 h of LPS stimulation, after 2 days of siRNA transfection
Treatment: bacterial lipopolysaccharide (Salmonella minnesota R595), 10 ng/ml
Measured: 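Nuclear mCherry signal of the Tnf promoter reporter measured by imaging after background removal, scaled to each plate median and turned into robust z-scores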
Scale: Tnf reporter robust z-score: higher = stronger Tnf promoter reporter signal after LPS; Tnf reporter intensity: higher = stronger Tnf promoter reporter signal
Rule for the call: 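a well counts as active at a score of -1.3 or below (Tlr4 knock-down control median) or above 3 (raised signal); controls and wells holding fewer than 50 cells are excluded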
Meaning of the calls: active = Tnf reporter clearly lowered or raised; inactive = no clear change in Tnf reporter

gene	Tnf reporter robust z-score	fewer than 50 cells in well	Tnf reporter intensity, replicate 1	Tnf reporter intensity, replicate 2
Tnfrsf13c (GeneID 72049)	-1.9 (active)	enough cells in well	46	30
Zfp646 (GeneID 233905)	-0.21	enough cells in well	183	159
Zc3h8 (GeneID 57432)	-0.2	enough cells in well	114	118
Atg10 (GeneID 66795)	0.13	enough cells in well	182	168
Klk1b5 (GeneID 16622)	0.24	enough cells in well	221	133
Tcp1 (GeneID 21454)	1.05	enough cells in well	365	150
Brap (GeneID 72399)	-0.98	enough cells in well	72.9	142
Smoc2 (GeneID 64074)		fewer than 50 cells per well; well left out of calls	40.4	0
Scgb2b24 (GeneID 233090)	0.92	enough cells in well	53	216
Alkbh3 (GeneID 69113)		fewer than 50 cells per well; well left out of calls	193	58.2
Polr3k (GeneID 67005)		fewer than 50 cells per well; well left out of calls	93.9	114
Cnppd1 (GeneID 69171)	5.12 (active)	enough cells in well	277	232
D630003M21Rik (GeneID 228846)	-1.9 (active)	enough cells in well	109	49.6
Or52a5b (GeneID 18370)	1.17	enough cells in well	137	128
Ppa1 (GeneID 67895)	0.18	enough cells in well	309	230
Gli2 (GeneID 14633)	-1.1	enough cells in well	150	119
Opn5 (GeneID 353344)	0.32	enough cells in well	378	75.8
1810055G02Rik (GeneID 72056)		fewer than 50 cells per well; well left out of calls	130	61.2
Gsdmc3 (GeneID 270328)	0.21	enough cells in well	198	194
Ifngr2 (GeneID 15980)	1.04	enough cells in well	329	247
Adgrl4 (GeneID 170757)	-0.27	enough cells in well	160	330
Cidec (GeneID 14311)	1.2	enough cells in well	260	250
Ccnh (GeneID 66671)	-0.66	enough cells in well	211	143
Abca15 (GeneID 320631)	-0.6	enough cells in well	156	157
Ndufaf3 (GeneID 66706)		fewer than 50 cells per well; well left out of calls	143	70.7
Slc4a1 (GeneID 20533)	-1.5 (active)	enough cells in well	142	48.5
Gatd1 (GeneID 213350)	0.02	enough cells in well	230	183
Or5p72 (GeneID 258733)	0.56	enough cells in well	109	150
Strip2 (GeneID 320609)	-0.86	enough cells in well	128	119
Cfb (GeneID 14962)	-1.65 (active)	enough cells in well	125	94.6
Kmt5c (GeneID 232811)	0.36	enough cells in well	186	285
Ppp2r2c (GeneID 269643)		fewer than 50 cells per well; well left out of calls	98.9	137
Clec12a (GeneID 232413)	-1.12	enough cells in well	134	87.1
Gcsam (GeneID 14525)	-0.4	enough cells in well	155	158
Alx3 (GeneID 11694)	-1.07	enough cells in well	109	106
Dynlt2b (GeneID 66061)	0.86	enough cells in well	350	96.3
Entpd2 (GeneID 12496)	0.78	enough cells in well	374	131
Tmem74b (GeneID 108832)	-1.07	enough cells in well	102	90.4
Atp5mj (GeneID 70257)		fewer than 50 cells per well; well left out of calls	87.6	41.9
Ptprb (GeneID 19263)	0.41	enough cells in well	277	222
